Data taken from PMC12003857.
Results are given in words; binding and its absence hold for the method and conditions named. In cells and extracts the contact can be indirect. Some binding calls cover weakened binding; strength is not graded here. Values belong to the substance of their own block, whether it stands above or below them.

Chains of the proteins cited; added tags and fusions are not shown.
UniProt Q96RU2: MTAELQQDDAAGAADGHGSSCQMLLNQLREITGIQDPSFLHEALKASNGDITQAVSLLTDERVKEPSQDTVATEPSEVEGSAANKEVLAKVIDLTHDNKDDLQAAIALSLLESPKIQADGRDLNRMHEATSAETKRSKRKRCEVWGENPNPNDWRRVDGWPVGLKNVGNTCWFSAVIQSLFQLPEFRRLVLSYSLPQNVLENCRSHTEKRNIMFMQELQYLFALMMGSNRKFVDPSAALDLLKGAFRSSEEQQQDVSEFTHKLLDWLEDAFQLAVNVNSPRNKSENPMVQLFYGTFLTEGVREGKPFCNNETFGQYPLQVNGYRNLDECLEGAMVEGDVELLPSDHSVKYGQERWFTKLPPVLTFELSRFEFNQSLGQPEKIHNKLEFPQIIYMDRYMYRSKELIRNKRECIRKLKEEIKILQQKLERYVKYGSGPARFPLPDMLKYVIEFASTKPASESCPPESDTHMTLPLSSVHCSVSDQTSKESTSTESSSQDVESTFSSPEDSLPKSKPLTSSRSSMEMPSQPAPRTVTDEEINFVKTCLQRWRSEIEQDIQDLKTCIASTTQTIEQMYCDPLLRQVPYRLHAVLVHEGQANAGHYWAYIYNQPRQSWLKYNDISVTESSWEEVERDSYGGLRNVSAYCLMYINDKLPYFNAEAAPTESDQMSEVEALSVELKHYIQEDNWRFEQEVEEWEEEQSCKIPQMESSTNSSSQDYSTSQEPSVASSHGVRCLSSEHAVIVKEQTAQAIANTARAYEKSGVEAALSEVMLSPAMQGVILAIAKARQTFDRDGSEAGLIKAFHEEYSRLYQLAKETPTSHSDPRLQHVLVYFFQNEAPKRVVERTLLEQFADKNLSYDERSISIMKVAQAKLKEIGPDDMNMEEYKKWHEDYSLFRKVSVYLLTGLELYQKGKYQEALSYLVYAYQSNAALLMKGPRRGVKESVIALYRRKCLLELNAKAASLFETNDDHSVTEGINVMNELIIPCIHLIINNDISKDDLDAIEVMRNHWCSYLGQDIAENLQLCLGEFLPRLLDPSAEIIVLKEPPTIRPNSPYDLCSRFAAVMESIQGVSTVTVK
UniProt Q9UHP3: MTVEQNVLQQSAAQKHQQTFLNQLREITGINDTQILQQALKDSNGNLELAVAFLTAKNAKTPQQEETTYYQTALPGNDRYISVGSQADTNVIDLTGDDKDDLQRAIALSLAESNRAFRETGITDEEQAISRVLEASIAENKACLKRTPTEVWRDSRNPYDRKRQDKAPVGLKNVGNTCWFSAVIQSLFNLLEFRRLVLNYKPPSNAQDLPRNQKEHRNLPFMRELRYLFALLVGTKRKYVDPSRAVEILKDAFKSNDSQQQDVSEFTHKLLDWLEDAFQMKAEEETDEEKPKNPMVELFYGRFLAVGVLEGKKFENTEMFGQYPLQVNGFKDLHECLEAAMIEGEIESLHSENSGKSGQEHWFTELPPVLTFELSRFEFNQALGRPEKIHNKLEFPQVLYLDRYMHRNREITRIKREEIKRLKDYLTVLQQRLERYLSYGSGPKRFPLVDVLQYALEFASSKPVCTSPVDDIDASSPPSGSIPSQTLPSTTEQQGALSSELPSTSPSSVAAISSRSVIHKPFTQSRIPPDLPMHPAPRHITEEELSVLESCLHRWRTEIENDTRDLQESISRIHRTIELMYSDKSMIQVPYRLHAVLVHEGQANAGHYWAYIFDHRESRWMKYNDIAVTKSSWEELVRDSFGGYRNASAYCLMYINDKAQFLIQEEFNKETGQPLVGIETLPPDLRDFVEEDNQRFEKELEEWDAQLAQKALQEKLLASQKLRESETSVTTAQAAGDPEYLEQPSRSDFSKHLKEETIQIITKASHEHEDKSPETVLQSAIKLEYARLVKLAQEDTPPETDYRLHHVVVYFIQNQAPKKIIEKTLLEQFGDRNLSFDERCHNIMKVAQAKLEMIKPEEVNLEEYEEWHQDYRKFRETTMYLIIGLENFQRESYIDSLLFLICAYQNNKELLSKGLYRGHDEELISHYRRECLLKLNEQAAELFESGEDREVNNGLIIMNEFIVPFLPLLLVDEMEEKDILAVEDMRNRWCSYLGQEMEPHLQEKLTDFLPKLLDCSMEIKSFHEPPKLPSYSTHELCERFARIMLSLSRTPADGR
UniProt Q969H0: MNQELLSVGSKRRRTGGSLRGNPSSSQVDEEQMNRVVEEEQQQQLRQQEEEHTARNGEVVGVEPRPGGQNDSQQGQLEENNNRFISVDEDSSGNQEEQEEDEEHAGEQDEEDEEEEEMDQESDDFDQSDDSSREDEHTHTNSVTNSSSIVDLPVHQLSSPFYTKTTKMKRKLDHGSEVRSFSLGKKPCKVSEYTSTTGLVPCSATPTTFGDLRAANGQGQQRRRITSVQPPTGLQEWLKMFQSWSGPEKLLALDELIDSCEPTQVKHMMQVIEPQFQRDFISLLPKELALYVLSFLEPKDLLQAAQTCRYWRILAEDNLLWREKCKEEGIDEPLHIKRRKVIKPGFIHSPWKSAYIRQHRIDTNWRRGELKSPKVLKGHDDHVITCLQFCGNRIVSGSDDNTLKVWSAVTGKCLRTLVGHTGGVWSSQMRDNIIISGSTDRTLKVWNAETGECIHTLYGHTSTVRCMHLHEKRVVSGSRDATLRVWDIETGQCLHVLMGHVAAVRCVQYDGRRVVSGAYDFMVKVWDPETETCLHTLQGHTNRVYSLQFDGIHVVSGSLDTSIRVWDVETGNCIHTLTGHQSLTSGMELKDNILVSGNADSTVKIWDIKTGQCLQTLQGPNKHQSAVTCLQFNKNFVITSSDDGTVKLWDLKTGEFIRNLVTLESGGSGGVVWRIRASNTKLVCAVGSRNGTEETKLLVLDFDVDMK
UniProt P48436: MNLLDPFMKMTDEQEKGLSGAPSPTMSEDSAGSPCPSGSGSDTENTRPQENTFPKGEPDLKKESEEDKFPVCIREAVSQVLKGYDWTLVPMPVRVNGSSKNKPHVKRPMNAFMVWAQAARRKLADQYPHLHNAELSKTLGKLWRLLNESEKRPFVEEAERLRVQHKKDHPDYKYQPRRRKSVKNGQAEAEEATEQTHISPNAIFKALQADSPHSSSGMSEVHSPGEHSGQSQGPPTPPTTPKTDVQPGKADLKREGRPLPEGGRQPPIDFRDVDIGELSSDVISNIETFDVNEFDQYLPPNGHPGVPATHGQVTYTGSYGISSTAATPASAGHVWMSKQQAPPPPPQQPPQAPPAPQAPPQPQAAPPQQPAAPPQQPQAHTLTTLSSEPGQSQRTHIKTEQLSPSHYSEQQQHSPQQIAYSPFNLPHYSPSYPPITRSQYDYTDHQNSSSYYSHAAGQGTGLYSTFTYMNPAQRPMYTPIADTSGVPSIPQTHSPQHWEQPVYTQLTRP

Legend:
[1] = biological target: HA-USP28 (full-length, pcDNA3.1) (human) (UniProt Q96RU2); experiment: co-IP; HEK293T co-transfected with full-length or truncated HA-USP28 and Flag-SOX9; IP with anti-HA beads, co-eluted SOX9 detected with anti-Flag antibody
USP25 (endogenous) = USP25 (endogenous) (UniProt Q9UHP3); experiment: co-IP; endogenous proteins; 800 ug cell extract with 5 uL primary antibody or normal IgG overnight, protein A/G magnetic beads 2 h at 4 °C; SKOV3, UWB1.289 and SKOV3/Ola cells, with or without olaparib treatment
[2] = biological target: F-box and WD repeat domain-containing 7 (FBXW7), endogenous (human (endogenous in SKOV3)) (UniProt Q969H0); experiment: as above
[3] = biological target: USP28 (endogenous) (human (endogenous in SKOV3, UWB1.289)) (UniProt Q96RU2); experiment: as above
[4] = biological target: SOX9 (endogenous) (human (endogenous in SKOV3, UWB1.289)) (UniProt P48436); experiment: as above

- binding [1]: binds
Substance: Flag-SOX9 (full-length, pcDNA3.1) (from UniProt P48436 1-509)

- binding (USP25 (endogenous)): no binding
- binding [2]: binds
- binding [3]: binds
Substance: SOX9 (endogenous) (from UniProt P48436 1-509)

- binding [4]: no binding
Substance: USP25 (endogenous) (from UniProt Q9UHP3 1-1055) (enzyme)
